Data: patent publication US20230203130A1 (Hubro Therapeutics AS, priority 2020, published 2023)

Experiment: general procedure: Fmoc solid-phase peptide synthesis
Settings: whole synthesis
[1] = UPLC, Acquity UPLC BEH C18, PDA 210-500 nm, 0.1% TFA in water / 0.1% TFA in MeCN
[2] = UPLC, Acquity UPLC BEH C18, PDA 210-500 nm, 0.1% TFA in water / 0.1% TFA in MeCN, 6TFA
[3] = UPLC, Acquity UPLC BEH C18, PDA 210-500 nm, 0.1% TFA in water / 0.1% TFA in MeCN, 2TFA

With “KCIMKEKKSLVRLSSCVPVALMSAMTTSSSQKN (listed as Homo sapiens)” as the sequence, how does the “crude HPLC purity” value [1] read?
Its value is “around 75%”.

What about the “final HPLC purity” value [1] of the same sequence?
Its value is “about 90%”.

And the “final HPLC purity” value (UPLC, Acquity UPLC BEH C18, PDA 210-500 nm, 0.1% TFA in water / 0.1% TFA in MeCN, 7TFA)?
The value was ~50%.

And the difficulty met (run 1)?
Its difficulty met is “Only very small amounts of the desired peptide were obtained, and analysis by UPLC found that the peptide was impure”.

And the difficulty met (run 2)?
The difficulty met was “Again, only very small amounts of purified fsp5 (SEQ ID NO: 19) were obtained”.

With “KCIMKEKKSLVRLSSCVPVALMSA (listed as Homo sapiens)” as the sequence, how does the “final HPLC purity” value [2] read?
The value was 96%.

Which “final HPLC purity” value [3] does the source give for SSGVPVALMSAMTTSSSQKN (Modified peptide) here?
The value was 91.9%.

For “KGIMKEKKSLVRLSSCVPVALMSA (Modified peptide)”, which “final HPLC purity” value [2] is on record?
The value was 97%.

For SSCVPVALMSAMTTSSSQKN, which “final HPLC purity” value [3] is on record?
Its value is 94.8%.

Plain letter strings leave the end groups untold.
